Data: paper PMC10810270, “Molecular mechanism of specific DNA sequence recognition by NRF1” (Nucleic Acids Research, 2023)
These are yes or no findings as the source states them, for the method shown.

Biological target: NRF1 (aa 177–284) (human) (UniProt Q16656)
Assay: SEC-MALS; HPLC-MALS, WTC-015S5 column, 50 mM PBS and 150 mM NaCl, 0.5 mL/min; oligomeric state of NRF1 fragments without DNA; both purified

binding: no binding
B1: NRF1 (aa 177–284) (domain or fragment, UniProt Q16656 177-284)
chain: APQEVNSELPPLTIDGIPVSVDKMTQAQLRAFIPEMLKYSTGRGKPGWGKESCKPIWWPEDIPWANVRSDVRTEEQKQRVSWTQALRTIVKNCYKQHGREDLLYAFED
